This is one part of the list.
Legend:
Assay in all cases: log2 fold change, soluble protein after heating vs DMSO (PISA); higher = thermal stabilisation; K562 cells, 10 uM, 30 min; active = over 0.2 and 3.5 SD of the protein, either way, in both replicates (recomputed)
[1] = compound: CS(=O)(=O)c1ccc(-c2cnc(N)c(C(=O)Nc3ccccc3)n2)cc1
In short: (§1)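 Thermal stability values are relative to control samples and come from duplicates. They are expressed as log2 fold changes. For measurement, K562 cells (2×10^6 cells/mL) received 10 μM compound for 30 min, and aliquots were heated for 3 min over 48°C-58°C, pooled, and extracted at 4°C in PBS with 0.5% NP-40. Soluble protein, the supernatant after 21,000xg for 90 min, was quantified by TMTpro 16plex LC-MS/MS with equalised channel sums.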

The chains behind the UniProt entries cited, without tags or fusion partners. Where a name states a change or a piece, a line headed by the entry shows the natural chain unless it says otherwise.
UniProt Q15365, whole entry, looked up: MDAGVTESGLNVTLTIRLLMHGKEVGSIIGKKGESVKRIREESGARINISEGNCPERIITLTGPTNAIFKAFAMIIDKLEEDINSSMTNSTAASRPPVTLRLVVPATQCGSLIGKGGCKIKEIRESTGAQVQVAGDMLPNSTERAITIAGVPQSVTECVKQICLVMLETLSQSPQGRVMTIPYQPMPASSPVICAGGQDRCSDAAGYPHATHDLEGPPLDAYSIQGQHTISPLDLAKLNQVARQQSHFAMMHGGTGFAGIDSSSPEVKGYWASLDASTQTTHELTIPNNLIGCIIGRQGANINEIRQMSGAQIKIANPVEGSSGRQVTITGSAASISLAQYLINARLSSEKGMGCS
UniProt Q5JVF3: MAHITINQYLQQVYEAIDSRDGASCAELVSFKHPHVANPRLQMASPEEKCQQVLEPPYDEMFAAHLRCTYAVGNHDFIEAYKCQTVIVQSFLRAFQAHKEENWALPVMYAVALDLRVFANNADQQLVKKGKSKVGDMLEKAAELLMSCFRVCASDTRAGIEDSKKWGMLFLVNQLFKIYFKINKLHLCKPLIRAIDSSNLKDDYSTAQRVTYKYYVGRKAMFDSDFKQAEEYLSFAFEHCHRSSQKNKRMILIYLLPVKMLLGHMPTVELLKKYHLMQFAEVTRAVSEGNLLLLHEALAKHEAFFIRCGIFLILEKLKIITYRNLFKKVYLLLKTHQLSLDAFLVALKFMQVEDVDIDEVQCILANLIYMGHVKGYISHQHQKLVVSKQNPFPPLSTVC
UniProt Q9H300: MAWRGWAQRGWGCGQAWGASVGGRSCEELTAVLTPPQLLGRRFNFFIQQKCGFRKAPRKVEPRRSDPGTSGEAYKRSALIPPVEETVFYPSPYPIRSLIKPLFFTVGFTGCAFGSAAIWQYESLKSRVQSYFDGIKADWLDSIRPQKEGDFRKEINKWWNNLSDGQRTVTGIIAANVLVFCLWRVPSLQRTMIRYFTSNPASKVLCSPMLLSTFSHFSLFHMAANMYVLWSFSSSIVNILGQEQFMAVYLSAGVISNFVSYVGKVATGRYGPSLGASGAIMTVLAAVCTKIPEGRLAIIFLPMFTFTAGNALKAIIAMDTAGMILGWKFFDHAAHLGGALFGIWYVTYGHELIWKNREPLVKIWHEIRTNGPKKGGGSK
UniProt Q86YH6: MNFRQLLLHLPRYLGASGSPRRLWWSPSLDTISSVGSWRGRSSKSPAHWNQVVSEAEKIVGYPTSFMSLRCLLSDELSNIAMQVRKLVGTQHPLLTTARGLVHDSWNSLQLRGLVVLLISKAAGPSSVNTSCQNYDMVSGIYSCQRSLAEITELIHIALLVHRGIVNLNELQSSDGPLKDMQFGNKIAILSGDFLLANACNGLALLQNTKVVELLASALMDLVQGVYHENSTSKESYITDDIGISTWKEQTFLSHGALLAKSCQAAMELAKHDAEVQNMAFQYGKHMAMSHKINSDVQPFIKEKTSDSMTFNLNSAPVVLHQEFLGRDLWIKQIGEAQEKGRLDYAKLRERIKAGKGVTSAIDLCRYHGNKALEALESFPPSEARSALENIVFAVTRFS
UniProt Q16342: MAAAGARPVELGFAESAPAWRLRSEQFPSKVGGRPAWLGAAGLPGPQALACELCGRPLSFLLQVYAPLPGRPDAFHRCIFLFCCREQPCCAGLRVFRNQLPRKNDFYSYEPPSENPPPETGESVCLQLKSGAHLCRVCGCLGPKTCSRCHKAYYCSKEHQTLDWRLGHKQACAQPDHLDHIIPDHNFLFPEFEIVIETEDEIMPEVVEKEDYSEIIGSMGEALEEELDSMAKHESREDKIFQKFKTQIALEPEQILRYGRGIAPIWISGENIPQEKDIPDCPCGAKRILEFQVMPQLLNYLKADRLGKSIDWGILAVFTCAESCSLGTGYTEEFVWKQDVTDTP
UniProt Q6L8Q7: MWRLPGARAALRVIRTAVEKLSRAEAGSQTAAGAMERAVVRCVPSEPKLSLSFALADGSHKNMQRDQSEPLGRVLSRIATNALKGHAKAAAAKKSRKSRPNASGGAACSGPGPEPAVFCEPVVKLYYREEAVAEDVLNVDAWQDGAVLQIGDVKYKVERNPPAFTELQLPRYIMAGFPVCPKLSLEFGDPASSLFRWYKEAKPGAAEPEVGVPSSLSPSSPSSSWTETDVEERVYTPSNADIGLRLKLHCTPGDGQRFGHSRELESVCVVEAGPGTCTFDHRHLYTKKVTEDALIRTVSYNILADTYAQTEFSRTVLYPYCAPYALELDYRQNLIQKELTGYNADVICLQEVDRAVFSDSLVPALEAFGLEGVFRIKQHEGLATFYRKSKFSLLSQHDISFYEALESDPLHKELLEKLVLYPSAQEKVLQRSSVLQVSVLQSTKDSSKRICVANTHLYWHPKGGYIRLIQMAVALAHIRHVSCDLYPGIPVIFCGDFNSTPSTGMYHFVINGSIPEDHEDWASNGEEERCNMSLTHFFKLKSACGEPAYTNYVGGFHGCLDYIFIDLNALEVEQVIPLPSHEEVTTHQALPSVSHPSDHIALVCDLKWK
UniProt P40425: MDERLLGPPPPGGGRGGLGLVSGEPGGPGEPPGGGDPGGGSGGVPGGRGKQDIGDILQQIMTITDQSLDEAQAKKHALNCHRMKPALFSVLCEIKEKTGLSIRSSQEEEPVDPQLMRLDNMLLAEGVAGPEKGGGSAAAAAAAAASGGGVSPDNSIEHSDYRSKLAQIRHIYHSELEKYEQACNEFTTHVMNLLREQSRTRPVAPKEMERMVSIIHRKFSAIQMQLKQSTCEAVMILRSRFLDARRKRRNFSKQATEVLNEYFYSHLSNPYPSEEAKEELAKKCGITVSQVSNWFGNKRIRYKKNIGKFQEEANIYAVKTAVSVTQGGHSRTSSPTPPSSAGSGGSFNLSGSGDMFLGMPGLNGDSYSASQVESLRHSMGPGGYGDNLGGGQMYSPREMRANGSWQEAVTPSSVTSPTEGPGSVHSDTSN
UniProt Q13442: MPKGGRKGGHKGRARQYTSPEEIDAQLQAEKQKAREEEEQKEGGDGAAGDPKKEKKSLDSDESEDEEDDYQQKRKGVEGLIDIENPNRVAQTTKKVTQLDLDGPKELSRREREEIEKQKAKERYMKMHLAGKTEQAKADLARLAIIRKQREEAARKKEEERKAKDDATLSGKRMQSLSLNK
UniProt Q9BUH6, whole entry, looked up: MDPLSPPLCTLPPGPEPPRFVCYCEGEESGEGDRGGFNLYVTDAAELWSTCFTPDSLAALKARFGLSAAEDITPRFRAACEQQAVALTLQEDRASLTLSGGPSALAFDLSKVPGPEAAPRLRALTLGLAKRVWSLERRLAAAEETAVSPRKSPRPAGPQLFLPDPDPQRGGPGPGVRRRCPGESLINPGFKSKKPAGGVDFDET
UniProt Q96HC4: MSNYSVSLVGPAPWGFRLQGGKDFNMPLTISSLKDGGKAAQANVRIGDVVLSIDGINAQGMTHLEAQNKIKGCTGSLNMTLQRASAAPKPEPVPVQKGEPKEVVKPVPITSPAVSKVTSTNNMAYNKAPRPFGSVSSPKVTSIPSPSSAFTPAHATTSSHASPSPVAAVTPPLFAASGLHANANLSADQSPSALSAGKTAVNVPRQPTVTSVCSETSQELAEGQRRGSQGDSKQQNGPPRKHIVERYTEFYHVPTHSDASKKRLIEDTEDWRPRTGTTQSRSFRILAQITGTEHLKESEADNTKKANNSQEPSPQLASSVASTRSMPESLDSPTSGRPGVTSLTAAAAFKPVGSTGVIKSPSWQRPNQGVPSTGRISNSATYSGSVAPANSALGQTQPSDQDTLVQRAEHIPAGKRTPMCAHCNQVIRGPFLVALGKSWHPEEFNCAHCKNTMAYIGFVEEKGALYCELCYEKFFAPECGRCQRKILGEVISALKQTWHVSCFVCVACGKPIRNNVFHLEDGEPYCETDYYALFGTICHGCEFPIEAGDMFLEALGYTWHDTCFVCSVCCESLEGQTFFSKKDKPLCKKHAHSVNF
UniProt H7BZJ3: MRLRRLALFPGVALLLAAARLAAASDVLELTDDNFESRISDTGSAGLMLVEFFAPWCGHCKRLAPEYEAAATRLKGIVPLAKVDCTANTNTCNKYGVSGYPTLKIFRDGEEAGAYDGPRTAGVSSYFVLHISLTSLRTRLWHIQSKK
UniProt Q7Z2X7: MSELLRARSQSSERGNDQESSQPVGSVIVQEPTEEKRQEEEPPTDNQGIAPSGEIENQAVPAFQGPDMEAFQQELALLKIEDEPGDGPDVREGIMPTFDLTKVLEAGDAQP
UniProt P30039: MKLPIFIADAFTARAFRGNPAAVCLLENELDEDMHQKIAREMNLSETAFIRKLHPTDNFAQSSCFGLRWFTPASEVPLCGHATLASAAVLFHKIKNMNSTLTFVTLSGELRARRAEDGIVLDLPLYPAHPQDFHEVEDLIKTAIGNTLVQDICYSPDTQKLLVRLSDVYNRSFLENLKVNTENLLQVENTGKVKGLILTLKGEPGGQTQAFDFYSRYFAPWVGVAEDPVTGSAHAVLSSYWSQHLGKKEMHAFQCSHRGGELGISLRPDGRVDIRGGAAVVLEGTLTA
UniProt O75914, whole entry, looked up: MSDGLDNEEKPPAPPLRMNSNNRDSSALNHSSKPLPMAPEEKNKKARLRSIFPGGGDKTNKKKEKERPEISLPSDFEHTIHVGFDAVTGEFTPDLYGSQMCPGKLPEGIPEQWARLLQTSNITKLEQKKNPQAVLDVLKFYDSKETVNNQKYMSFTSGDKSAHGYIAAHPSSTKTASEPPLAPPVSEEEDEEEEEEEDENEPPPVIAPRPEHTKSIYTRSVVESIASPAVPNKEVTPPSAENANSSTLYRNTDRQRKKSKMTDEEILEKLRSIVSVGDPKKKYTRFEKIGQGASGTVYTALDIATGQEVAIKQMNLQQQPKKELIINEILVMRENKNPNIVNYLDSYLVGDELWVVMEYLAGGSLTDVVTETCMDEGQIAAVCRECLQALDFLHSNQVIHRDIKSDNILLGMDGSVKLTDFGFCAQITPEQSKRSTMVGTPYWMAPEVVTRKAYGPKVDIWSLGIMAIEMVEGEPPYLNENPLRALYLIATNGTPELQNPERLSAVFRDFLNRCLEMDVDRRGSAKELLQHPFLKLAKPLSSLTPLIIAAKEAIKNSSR
UniProt O14737: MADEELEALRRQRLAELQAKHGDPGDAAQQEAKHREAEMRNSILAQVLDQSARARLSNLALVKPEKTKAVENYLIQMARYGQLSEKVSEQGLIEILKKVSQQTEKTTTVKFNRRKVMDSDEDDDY
UniProt O43924: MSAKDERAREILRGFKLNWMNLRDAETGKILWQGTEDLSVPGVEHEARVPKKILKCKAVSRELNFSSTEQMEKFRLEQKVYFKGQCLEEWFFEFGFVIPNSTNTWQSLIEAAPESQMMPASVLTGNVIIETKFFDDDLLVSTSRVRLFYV
UniProt Q8N5Y8: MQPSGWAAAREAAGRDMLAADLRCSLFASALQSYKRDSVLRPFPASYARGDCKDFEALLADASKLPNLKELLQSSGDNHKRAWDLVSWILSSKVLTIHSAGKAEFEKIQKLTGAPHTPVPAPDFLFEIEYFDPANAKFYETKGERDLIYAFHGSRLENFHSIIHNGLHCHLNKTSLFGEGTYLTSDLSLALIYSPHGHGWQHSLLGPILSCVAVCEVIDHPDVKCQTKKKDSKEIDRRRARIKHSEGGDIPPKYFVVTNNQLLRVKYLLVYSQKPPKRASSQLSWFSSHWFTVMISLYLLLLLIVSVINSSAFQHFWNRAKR
UniProt O15530: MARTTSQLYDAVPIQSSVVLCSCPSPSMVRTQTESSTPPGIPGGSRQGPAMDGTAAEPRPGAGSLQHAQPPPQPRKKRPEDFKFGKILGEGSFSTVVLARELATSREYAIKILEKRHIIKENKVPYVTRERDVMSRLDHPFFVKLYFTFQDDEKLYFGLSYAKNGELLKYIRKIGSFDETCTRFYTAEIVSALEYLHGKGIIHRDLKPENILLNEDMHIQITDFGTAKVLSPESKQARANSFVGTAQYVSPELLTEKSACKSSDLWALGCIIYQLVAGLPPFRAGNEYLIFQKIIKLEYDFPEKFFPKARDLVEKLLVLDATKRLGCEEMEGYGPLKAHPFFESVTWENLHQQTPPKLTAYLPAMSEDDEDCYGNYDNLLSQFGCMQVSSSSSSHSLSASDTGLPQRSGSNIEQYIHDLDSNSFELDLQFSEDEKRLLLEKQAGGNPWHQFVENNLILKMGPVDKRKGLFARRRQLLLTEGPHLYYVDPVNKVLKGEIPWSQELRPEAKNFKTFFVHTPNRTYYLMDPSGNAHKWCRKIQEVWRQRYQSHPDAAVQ

[2] = compound: C[C@@H](Oc1cc(-c2cnn(C3CCNCC3)c2)cnc1N)c1c(Cl)ccc(F)c1Cl [crizotinib]
In short: as §1

[3] = compound: C[C@@H]1COCCN1C2=NC(=NC(=C2)C3(CC3)S(=O)(=O)C)C4=C5C=CNC5=CC=C4
In short: as §1

[4] = compound: C[C@H](C1=CC=C(C=C1)C(=O)NC2=C3C=CNC3=NC=C2)N
In short: as §1

[5] = compound: Cc1cc(Nc2cc(CN3CCOCC3)c3nc(C)c(Cc4ccc(Cl)cc4F)n3n2)n[nH]1 [gandotinib]
In short: as §1

[6] = compound: Cc1cc(SCc2sc(-c3ccc(C(F)(F)F)cc3)nc2C)ccc1OCC(=O)O
In short: as §1

[7] = compound: Cc1ccc(-n2nc(C(C)(C)C)cc2NC(=O)Nc2ccc(OCCN3CCOCC3)c3ccccc23)cc1 [doramapimod]
In short: as §1

[8] = compound: Cc1ccc(C(=O)N(CCCN)[C@@H](c2nc3cc(Cl)ccc3c(=O)n2Cc2ccccc2)C(C)C)cc1 [ispinesib]
In short: as §1

[9] = compound: Cc1ccc(NC(=O)c2ccc(CN3CC[C@H](N(C)C)C3)c(C(F)(F)F)c2)cc1Nc1nccc(-c2cncnc2)n1 [bafetinib]
In short: as §1

[10] = compound: Cc1cccc(CC(=O)N2CCc3c2ccc(-c2cn(C)c4ncnc(N)c24)c3F)n1
In short: as §1

[11] = compound: Cc1cn(-c2cc(NC(=O)c3ccc(C)c(Nc4nccc(-c5cccnc5)n4)c3)cc(C(F)(F)F)c2)cn1 [nilotinib]
In short: as §1

[12] = compound: Cc1nc(Nc2n[nH]c3c2CN(C(=O)N[C@H](CN(C)C)c2ccccc2)C3(C)C)c2sccc2n1
In short: as §1

[13] = compound: Cc1nc(Nc2ncc(C(=O)Nc3c(C)cccc3Cl)s2)cc(N2CCN(CCO)CC2)n1 [dasatinib]
In short: as §1

[14] = compound: Cc1ncc(-c2ccnc(Nc3ccc(S(C)(=O)=O)cc3)n2)n1C(C)C
In short: as §1

[15] = compound: Cn1cc(-c2ccc3c(c2)CCN3C(=O)Cc2cccc(C(F)(F)F)c2)c2c(N)ncnc21
In short: as §1

[16] = compound: Cn1cc(-c2ccc3nnc(C(F)(F)c4ccc5ncccc5c4)n3n2)cn1
In short: as §1

[17] = compound: Cn1cncc1[C@@](N)(c1ccc(Cl)cc1)c1ccc2c(c1)c(-c1cccc(Cl)c1)cc(=O)n2C [tipifarnib]
In short: as §1

[18] = compound: FC(F)(F)c1ccc(/C=C/c2nc(COc3ccc(CCCCn4ccnn4)cc3)co2)cc1 [mubritinib]
In short: as §1

[19] = compound: C[C@H](Nc1ncnc2nc[nH]c12)c1cc2cccc(Cl)c2c(=O)n1-c1ccccc1 [duvelisib]
In short: as §1

[20] = compound: Cc1cc(Nc2cc(N3CCN(C)CC3)nc(Sc3ccc(NC(=O)C4CC4)cc3)n2)n[nH]1 [tozasertib]
In short: as §1

Measured: log2 fold change

PCBP1 (UniProt Q15365)
inactive: [1] 0.012 | [2] 0 | [3] 0.094 | [4] -0.012 | [5] -0.12 | [6] 0.07 | [7] -0.016 | [8] 0.028 | [9] -0.007 | [10] 0.033 | [11] -0.057 | [12] -0.086 | [13] -0.111 | [14] -0.026 | [15] 0.064 | [16] -0.004 | [17] -0.119 | [18] -0.011

PCID2 (UniProt Q5JVF3)
inactive: [1] 0.157 | [2] -0.171 | [3] -0.138 | [4] 0.246 | [5] -0.149 | [6] 0.058 | [7] -0.005 | [8] -0.096 | [9] 0.07 | [10] 0.078 | [11] -0.013 | [12] -0.061 | [13] -0.254 | [14] -0.02 | [15] 0.038 | [16] -0.036 | [17] -0.071 | [18] 0.109

PARL (UniProt Q9H300)
inactive: [1] -0.004 | [2] -0.036 | [3] 0.186 | [4] -0.011 | [5] 0.025 | [6] -0.035 | [7] -0.009 | [8] -0.193 | [9] -0.169 | [10] 0.061 | [11] 0.047 | [12] -0.011 | [13] 0.015 | [14] 0.018 | [15] 0.017 | [16] 0.051 | [17] -0.023 | [18] 0.021

PDSS2 (UniProt Q86YH6)
inactive: [1] -0.034 | [2] 0.078 | [3] 0.075 | [4] -0.058 | [5] 0.098 | [6] 0.149 | [7] 0.049 | [8] -0.031 | [9] 0.077 | [10] 0.048 | [11] 0.029 | [12] 0.163 | [13] 0.06 | [14] -0.154 | [15] 0.052 | [16] 0.02 | [17] -0.095

PDCD2 (UniProt Q16342)
inactive: [1] 0.048 | [2] -0.028 | [3] -0.152 | [4] 0.322 | [19] 0.033 | [20] 0.107 | [6] 0.179 | [7] 0.183 | [9] 0.095 | [13] -0.111 | [15] -0.311 | [18] -0.331

PDE12 (UniProt Q6L8Q7)
inactive: [1] 0.047 | [2] 0.032 | [3] 0.088 | [4] -0.133 | [5] 0.027 | [6] 0 | [7] -0.027 | [8] 0.065 | [9] -0.013 | [10] 0.002 | [11] -0.004 | [12] 0.017 | [13] -0.061 | [14] -0.006 | [15] 0.067 | [16] 0.066 | [17] -0.078 | [18] 0.066

PBX2 (UniProt P40425)
inactive: [1] -0.001 | [2] -0.14 | [3] 0.026 | [4] -0.051 | [6] 0.095 | [7] 0.119 | [8] -0.102 | [9] 0.019 | [10] 0.042 | [11] -0.057 | [12] -0.071 | [13] -0.202 | [14] -0.034 | [15] 0.013 | [16] -0.091 | [17] -0.116 | [18] 0.027
active: [5] -0.632

PDAP1 (UniProt Q13442)
inactive: [1] -0.072 | [2] -0.033 | [3] -0.059 | [4] 0.023 | [19] -0.003 | [5] 0.012 | [20] -0.061 | [6] -0.025 | [7] 0.063 | [8] 0.059 | [9] 0.034 | [10] -0.032 | [11] 0.006 | [12] 0.002 | [13] 0.022 | [14] -0.005 | [15] -0.014 | [16] 0.005 | [17] 0.011 | [18] 0.042

PAXX (UniProt Q9BUH6)
inactive: [1] -0.043 | [2] 0.036 | [3] -0.117 | [4] -0.039 | [19] 0.028 | [5] 0.008 | [20] 0 | [6] -0.016 | [7] 0.021 | [8] -0.051 | [9] -0.049 | [10] 0.027 | [11] 0.05 | [12] -0.011 | [13] -0.011 | [14] -0.009 | [15] 0.019 | [16] 0.03 | [17] -0.023 | [18] 0.041

PDLIM5 (UniProt Q96HC4)
inactive: [1] 0.029 | [2] -0.089 | [3] 0.016 | [4] -0.059 | [19] 0.002 | [5] 0.045 | [20] -0.013 | [6] 0.009 | [7] -0.049 | [8] 0.01 | [9] -0.039 | [10] 0.024 | [11] 0.019 | [12] -0.011 | [13] -0.038 | [14] -0.005 | [15] 0.026 | [16] -0.03 | [17] -0.023 | [18] 0.051

PDIA3 (UniProt H7BZJ3)
inactive: [1] 0.14 | [2] 0.045 | [3] -0.175 | [4] 0.092 | [19] 0.168 | [5] 0.075 | [20] -0.029 | [6] -0.098 | [7] 0.026 | [9] -0.046 | [10] 0.001 | [11] 0.121 | [12] 0.067 | [13] 0.126 | [14] -0.069 | [15] -0.281 | [17] 0.085 | [18] -0.074

PAGE2 (UniProt Q7Z2X7)
inactive: [1] -0.004 | [2] 0.257 | [3] 0.218 | [4] -0.054 | [19] 0.255 | [5] 0.128 | [20] -0.047 | [6] -0.029 | [7] 0.054 | [9] -0.046 | [10] -0.047 | [11] -0.02 | [12] -0.05 | [13] -0.023 | [14] 0.009 | [15] 0.122 | [17] 0.161 | [18] 0.034

PBLD (UniProt P30039)
inactive: [1] -0.002 | [2] -0.184 | [3] 0 | [4] -0.029 | [19] 0.109 | [20] -0.034 | [6] 0.018 | [7] 0.335 | [8] 0.046 | [9] -0.013 | [11] -0.005 | [12] 0.009 | [13] -0.047 | [14] 0.052 | [15] 0.065 | [16] -0.073 | [17] 0.016 | [18] -0.002

Taken from the entries so far (two entries):
PAXX (UniProt Q9BUH6)
inactive: [1] -0.043 | [2] 0.036 | [3] -0.117 | [4] -0.039 | [19] 0.028 | [5] 0.008 | [20] 0 | [6] -0.016 | [7] 0.021 | [8] -0.051 | [9] -0.049 | [10] 0.027 | [11] 0.05 | [12] -0.011 | [13] -0.011 | [14] -0.009 | [15] 0.019 | [16] 0.03 | [17] -0.023 | [18] 0.041

PDLIM5 (UniProt Q96HC4)
inactive: [1] 0.029 | [2] -0.089 | [3] 0.016 | [4] -0.059 | [19] 0.002 | [5] 0.045 | [20] -0.013 | [6] 0.009 | [7] -0.049 | [8] 0.01 | [9] -0.039 | [10] 0.024 | [11] 0.019 | [12] -0.011 | [13] -0.038 | [14] -0.005 | [15] 0.026 | [16] -0.03 | [17] -0.023 | [18] 0.051

The listing continues.

PAK3 isoform 3 (UniProt O75914)
inactive: [1] 0.013 | [2] 0.044 | [3] -0.017 | [4] -0.085 | [19] 0.021 | [5] 0.051 | [6] -0.028 | [7] 0.002 | [8] 0.124 | [9] 0.005 | [10] 0.043 | [11] 0.026 | [12] -0.012 | [13] 0.008 | [14] 0.019 | [15] 0.011 | [16] -0.013 | [17] -0.028 | [18] 0.039

PDCD5 (UniProt O14737)
inactive: [1] -0.071 | [2] -0.027 | [3] 0.056 | [4] -0.081 | [19] -0.006 | [5] 0.001 | [20] 0.015 | [6] -0.044 | [7] -0.015 | [8] 0.016 | [9] 0.089 | [10] -0.01 | [11] 0.017 | [12] 0.03 | [13] 0.055 | [14] -0.021 | [15] 0 | [16] 0.009 | [17] 0.003 | [18] 0.044

PDE6D (UniProt O43924)
inactive: [1] -0.165 | [2] 0.001 | [3] 0.079 | [4] -0.148 | [5] -0.202 | [6] -0.098 | [7] 0.084 | [9] 0.266 | [10] 0.169 | [11] 0.191 | [12] -0.238 | [13] 0.026 | [14] 0.011 | [15] 0.385 | [18] 0.565

PARP16 isoform 3 (UniProt Q8N5Y8)
inactive: [1] -0.008 | [2] 0.076 | [3] -0.021 | [4] 0.079 | [5] 0.081 | [6] -0.081 | [7] 0.072 | [9] 0.096 | [10] -0.005 | [11] -0.034 | [12] -0.019 | [13] -0.009 | [14] 0.053 | [15] 0.011 | [17] -0.092 | [18] 0.089

PDPK1 (UniProt O15530)
active: [2] -0.282
inactive: [1] -0.066 | [3] 0.081 | [4] 0.013 | [5] -0.173 | [6] 0.015 | [7] 0.003 | [8] -0.143 | [9] -0.06 | [10] 0.051 | [11] -0.104 | [12] 0.089 | [13] -0.169 | [14] -0.084 | [15] 0.077 | [16] 0.011 | [17] -0.043 | [18] 0.022

From the supplement of paper PMC10849652
